Results taken from publication PMC12808100, “The non-catalytic DNA polymerase ε subunit is an NPF motif recognition protein” (Nature Communications, 2025).

The chains behind the UniProt entries cited, without tags or fusion partners.
UniProt O43426: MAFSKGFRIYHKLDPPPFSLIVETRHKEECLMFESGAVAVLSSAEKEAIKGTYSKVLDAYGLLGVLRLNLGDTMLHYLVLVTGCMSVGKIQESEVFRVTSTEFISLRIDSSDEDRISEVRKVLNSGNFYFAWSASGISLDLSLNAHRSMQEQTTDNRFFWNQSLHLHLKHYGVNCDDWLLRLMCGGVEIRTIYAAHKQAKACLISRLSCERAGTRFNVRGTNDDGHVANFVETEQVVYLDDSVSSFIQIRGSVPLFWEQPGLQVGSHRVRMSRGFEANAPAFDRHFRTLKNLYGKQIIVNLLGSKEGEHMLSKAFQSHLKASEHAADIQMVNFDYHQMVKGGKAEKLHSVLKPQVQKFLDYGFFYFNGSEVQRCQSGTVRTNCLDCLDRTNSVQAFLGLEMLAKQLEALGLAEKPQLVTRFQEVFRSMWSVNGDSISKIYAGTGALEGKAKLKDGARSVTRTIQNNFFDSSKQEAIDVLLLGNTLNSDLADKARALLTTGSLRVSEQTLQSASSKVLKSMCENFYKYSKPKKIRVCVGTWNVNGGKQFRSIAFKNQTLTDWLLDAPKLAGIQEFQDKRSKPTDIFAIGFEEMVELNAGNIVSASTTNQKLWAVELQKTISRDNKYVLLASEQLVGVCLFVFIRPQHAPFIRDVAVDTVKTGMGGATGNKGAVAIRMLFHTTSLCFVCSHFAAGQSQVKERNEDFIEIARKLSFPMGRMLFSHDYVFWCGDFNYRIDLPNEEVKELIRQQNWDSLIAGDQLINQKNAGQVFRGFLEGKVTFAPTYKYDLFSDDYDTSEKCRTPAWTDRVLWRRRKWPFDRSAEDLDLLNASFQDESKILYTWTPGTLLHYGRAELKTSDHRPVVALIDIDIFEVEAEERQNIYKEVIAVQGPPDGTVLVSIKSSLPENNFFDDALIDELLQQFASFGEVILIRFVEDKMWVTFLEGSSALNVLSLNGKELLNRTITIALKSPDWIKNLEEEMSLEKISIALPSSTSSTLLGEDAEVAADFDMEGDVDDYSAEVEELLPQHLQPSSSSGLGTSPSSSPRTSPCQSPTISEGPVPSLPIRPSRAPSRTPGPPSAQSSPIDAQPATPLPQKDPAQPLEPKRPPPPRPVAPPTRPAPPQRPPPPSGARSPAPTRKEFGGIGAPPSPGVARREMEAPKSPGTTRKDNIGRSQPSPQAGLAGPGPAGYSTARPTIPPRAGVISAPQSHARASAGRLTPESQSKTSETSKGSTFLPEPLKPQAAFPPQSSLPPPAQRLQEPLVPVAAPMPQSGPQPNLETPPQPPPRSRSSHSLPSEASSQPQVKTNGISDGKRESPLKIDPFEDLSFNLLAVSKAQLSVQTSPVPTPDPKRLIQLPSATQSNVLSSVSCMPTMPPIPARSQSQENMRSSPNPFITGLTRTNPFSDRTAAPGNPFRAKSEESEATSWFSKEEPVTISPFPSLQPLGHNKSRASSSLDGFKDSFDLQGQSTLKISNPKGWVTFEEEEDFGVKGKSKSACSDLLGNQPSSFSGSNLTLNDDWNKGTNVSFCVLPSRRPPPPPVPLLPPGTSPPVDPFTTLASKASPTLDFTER
UniProt Q9BVC3: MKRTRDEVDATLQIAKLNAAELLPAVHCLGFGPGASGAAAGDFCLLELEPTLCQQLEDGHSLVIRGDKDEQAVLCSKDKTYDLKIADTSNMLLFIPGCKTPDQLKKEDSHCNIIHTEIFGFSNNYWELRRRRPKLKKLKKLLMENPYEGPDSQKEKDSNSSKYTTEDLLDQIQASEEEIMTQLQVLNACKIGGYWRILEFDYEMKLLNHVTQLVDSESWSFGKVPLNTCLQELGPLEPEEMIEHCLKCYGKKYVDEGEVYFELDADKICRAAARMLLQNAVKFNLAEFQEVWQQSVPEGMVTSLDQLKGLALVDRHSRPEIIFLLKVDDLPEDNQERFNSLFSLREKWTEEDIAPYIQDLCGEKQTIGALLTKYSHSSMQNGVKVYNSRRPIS
UniProt Q86U70: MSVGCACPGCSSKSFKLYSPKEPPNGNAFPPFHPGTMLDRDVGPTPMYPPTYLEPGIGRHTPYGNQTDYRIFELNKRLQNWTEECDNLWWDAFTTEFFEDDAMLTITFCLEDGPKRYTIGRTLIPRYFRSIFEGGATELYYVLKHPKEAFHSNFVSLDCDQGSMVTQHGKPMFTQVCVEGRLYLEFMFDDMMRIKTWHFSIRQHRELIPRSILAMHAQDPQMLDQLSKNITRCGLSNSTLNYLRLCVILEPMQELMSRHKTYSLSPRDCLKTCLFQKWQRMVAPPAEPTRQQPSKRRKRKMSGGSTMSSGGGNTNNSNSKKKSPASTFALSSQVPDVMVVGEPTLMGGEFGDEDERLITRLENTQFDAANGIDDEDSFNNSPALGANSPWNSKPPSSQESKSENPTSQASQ
UniProt Q9UQ84: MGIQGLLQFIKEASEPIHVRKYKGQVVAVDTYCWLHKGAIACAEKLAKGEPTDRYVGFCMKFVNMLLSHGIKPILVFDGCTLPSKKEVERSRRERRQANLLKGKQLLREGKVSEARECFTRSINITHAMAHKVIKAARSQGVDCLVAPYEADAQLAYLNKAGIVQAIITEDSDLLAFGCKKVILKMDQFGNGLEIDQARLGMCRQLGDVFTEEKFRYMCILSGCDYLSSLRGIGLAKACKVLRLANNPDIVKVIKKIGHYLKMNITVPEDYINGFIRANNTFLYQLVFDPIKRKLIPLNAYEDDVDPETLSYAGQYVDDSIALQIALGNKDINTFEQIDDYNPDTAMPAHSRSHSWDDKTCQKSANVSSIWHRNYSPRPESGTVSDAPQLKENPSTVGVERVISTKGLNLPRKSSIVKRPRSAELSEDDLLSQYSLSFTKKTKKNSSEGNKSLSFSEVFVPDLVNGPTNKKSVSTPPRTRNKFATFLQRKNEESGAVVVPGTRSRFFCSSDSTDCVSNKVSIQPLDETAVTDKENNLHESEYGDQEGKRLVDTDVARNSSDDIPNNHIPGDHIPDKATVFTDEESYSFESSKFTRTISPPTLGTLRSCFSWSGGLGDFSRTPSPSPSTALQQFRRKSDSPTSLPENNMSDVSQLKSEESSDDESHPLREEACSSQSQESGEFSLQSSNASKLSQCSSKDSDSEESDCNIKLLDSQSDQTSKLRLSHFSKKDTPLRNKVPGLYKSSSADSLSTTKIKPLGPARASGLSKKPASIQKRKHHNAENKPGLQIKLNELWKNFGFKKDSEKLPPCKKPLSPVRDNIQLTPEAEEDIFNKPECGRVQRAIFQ
UniProt Q9HAW4: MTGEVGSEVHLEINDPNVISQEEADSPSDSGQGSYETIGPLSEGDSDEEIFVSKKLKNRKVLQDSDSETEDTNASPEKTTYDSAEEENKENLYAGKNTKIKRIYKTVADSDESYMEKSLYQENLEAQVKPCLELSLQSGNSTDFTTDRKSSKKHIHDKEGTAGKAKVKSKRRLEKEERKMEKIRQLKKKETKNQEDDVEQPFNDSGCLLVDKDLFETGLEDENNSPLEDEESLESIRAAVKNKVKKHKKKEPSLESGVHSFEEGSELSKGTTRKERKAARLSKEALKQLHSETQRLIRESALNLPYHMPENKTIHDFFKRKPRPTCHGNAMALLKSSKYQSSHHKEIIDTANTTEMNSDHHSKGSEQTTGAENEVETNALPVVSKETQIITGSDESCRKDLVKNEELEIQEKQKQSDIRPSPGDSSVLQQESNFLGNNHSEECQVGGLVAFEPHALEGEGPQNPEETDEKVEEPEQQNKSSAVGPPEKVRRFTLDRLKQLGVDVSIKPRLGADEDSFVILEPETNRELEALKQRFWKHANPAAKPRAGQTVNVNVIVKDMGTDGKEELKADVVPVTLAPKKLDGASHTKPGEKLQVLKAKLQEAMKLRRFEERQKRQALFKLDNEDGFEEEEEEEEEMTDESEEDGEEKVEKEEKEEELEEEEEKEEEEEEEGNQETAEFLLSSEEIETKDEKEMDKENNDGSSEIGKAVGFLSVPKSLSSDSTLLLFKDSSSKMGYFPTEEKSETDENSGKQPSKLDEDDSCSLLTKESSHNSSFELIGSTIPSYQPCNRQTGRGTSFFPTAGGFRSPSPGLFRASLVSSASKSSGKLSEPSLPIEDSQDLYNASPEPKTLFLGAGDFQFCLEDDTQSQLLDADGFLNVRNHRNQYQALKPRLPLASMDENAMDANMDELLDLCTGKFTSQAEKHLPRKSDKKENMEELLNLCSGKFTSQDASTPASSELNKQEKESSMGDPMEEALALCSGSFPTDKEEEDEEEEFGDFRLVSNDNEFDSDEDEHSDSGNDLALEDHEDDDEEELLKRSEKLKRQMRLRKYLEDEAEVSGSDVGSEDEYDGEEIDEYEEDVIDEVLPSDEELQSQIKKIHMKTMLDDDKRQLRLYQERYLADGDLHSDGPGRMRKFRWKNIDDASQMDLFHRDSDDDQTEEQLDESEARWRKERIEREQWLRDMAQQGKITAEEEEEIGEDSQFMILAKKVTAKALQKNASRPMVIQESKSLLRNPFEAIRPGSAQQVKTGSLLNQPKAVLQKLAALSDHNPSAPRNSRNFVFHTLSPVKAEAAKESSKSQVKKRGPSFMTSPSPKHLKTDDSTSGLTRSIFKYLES
UniProt Q9UJU2: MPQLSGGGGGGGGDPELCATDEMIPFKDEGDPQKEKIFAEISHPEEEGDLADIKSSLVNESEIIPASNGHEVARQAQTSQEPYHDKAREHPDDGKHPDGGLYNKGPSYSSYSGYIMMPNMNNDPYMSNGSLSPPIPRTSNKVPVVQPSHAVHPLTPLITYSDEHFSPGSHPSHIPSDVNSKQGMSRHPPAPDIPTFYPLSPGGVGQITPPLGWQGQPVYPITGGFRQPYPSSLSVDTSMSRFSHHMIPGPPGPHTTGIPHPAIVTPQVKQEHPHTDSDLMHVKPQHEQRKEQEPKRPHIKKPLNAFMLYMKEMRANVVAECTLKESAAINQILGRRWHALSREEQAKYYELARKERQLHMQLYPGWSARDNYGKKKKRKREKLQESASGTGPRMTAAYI
UniProt P09884: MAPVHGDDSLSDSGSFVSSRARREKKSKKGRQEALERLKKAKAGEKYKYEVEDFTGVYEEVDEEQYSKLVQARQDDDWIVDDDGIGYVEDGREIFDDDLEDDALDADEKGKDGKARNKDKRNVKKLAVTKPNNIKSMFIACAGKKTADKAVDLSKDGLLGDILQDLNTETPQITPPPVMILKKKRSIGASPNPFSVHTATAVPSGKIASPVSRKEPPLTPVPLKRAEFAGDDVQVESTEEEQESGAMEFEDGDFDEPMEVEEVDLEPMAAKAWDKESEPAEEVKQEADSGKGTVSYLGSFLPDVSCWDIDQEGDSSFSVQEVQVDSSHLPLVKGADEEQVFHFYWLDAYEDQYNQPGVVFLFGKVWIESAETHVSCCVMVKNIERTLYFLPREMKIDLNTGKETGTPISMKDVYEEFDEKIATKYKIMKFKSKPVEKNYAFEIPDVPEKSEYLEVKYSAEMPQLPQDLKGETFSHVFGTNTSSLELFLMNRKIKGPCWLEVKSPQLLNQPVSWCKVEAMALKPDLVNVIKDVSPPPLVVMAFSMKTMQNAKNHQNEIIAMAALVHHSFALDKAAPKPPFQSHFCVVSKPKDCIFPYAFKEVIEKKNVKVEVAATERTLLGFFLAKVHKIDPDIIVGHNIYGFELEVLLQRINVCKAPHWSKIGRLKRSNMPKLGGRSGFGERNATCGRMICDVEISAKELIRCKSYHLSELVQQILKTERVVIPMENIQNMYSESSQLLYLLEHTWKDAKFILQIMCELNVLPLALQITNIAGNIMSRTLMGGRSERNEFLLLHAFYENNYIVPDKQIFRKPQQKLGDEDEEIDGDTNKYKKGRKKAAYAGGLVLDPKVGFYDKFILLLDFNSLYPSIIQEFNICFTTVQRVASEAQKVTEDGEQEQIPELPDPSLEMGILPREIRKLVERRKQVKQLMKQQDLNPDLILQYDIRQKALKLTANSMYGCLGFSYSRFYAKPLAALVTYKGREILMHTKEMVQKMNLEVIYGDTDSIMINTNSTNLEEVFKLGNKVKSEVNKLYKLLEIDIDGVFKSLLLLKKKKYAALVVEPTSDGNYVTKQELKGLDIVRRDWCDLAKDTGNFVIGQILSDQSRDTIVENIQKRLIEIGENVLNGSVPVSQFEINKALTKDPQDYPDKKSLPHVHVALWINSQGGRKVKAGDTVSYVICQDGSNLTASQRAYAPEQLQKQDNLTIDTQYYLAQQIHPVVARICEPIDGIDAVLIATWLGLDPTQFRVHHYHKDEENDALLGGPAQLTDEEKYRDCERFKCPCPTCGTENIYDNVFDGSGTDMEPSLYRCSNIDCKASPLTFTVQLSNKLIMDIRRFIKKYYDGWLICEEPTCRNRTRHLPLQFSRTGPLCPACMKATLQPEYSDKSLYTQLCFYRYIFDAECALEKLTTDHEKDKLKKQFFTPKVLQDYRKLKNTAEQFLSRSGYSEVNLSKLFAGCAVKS
UniProt Q9NRF9: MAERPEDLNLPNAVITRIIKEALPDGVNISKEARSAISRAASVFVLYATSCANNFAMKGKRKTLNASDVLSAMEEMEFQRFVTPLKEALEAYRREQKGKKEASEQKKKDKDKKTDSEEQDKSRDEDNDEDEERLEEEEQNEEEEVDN

Experiments:
[1] = target: His6-AviTag-MBP-TEV-POLE2 (human) (UniProt P56282); assay: native holdup (nHU) with mass spectrometry; single point; biotinylated His6-avi-MBP-POLE2 bait on streptavidin resin at 26 μM, His6-avi-MBP as control; Jurkat extract, 4 °C, 2 h; label-free MS of the supernatant; apparent; only the target purified
[2] = target: C-terminally MAC3-tagged POLE2, wild type (human) (UniProt P56282); assay: proximity labelling; C-terminally MAC3-tagged (ultraID) POLE2 variants in Flp-In T-REx 293 cells, tetracycline 24 h, 50 μM biotin 3 h; Strep-Tactin purification, mass spectrometry, SAINTexpress against GFP control
[3] = target: C-terminally MAC3-tagged POLE2 E520A (human) (UniProt P56282); assay: as above
[4] = target: C-terminally MAC3-tagged POLE2 S522A (human) (UniProt P56282); assay: as above
[5] = target: C-terminally MAC3-tagged POLE2 Y311F (human) (UniProt P56282); assay: as above

Substance	binding [1]	binding [2]	also measured
SYNJ1, endogenous full length (from UniProt O43426 1-1573)	binds		
DSCC1, endogenous (from UniProt Q9BVC3 1-393)		binds	
LDB1, endogenous (from UniProt Q86U70 1-411)	binds		
exonuclease EXO1, endogenous (from UniProt Q9UQ84 1-846)	binds	binds	binding [3]: no binding; binding [4]: no binding; binding [5]: no binding
Claspin, endogenous (from UniProt Q9HAW4 1-1339)		binds	

Further lines, with some results ahead:

binding [1]	binding [2]	Substance	also measured
binds		LEF1, endogenous (from UniProt Q9UJU2 1-399)	
	binds	POLA1, endogenous (from UniProt P09884 1-1462)	
	binds	POLE3, endogenous (from UniProt Q9NRF9 1-147)	

No constants are given. Whether binding was seen depends on the method and setting. In cells and extracts the contact can be indirect. These calls come from enrichment with a bait or labelling near it, and not all partners need be listed. For part of these data: No binding means not detected with the bait. Where a sequence is shown, tags or fusion partners need not be part of it.
